This is an account of results in the supplement of paper PMC4604168 (melanoma cell lines).

Some of the results follow. Repeats are few or missing, and single values can be far off.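 The apoptosis fraction was the count of cleaved-PARP antibody-stained nuclei relative to all DNA-stained nuclei, imaged in 1,536-well plates. Screening doses were set so most cells survived, and baseline and induced cleaved-PARP levels vary greatly across cell lines.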

The test has as its system CBRC013 (line from a melanoma biopsy). Kind of test: cleaved PARP positive nuclei fraction relative to DMSO control; melanoma cells; higher = more apoptosis. To be noted: library dose: low library concentration; 72 h.
In the case of `Nc1ncn([C@H]2C[C@H](O)[C@@H](CO)O2)c(=O)n1` [decitabine] + Cc1cc(N2CCOCC2)cc2[nH]c(-c3c(NC[C@@H](O)c4cccc(Cl)c4)cc[nH]c3=O)nc12 [BMS536924] (first compound 0.1 µM, partner dose 0.2 µM), the “cleaved PARP positive nuclei fraction” value was 251%.
Regarding `Cn1c(=O)n(-c2ccc(C(C)(C)C#N)cc2)c2c3cc(-c4cnc5ccccc5c4)ccc3ncc21` + NCC(=O)Nc1ccc(-n2nc(C(F)(F)F)cc2-c2ccc3c(ccc4ccccc43)c2)cc1 [OSU03012] (first compound 0.004 µM, partner dose 1 µM), the “cleaved PARP positive nuclei fraction” value was determined as 116%.
To `CS(=O)(=O)CCNCc1ccc(-c2ccc3ncnc(Nc4ccc(OCc5cccc(F)c5)c(Cl)c4)c3c2)o1` [lapatinib] + O=C(Nc1cccc(Cl)c1)Nc1ncc(CCNc2ncnc3ccsc23)s1 [SNS314] (first compound 0.8 µM, partner dose 0.0008 µM) belongs 123%; to `CN1CCN(c2ccc3nc(-c4c(N)c5c(F)cccc5[nH]c4=O)[nH]c3c2)CC1` [Dovitinib] + CN(C)S(=O)(=O)c1ccc2c(c1)/C(=C/c1cc3c([nH]1)CCCC3)C(=O)N2 [SU6656] (first compound 0.1 µM, partner dose 0.4 µM), 127%.
To `C[C@@H](Oc1cc(-c2cnn(C3CCNCC3)c2)cnc1N)c1c(Cl)ccc(F)c1Cl` [Crizotinib] + Cn1cncc1[C@@](N)(c1ccc(Cl)cc1)c1ccc2c(c1)c(-c1cccc(Cl)c1)cc(=O)n2C [tipifarnib] (first compound 0.2 µM, partner dose 0.01 µM) belongs 114%.
